Data as given in the supplement of paper PMC3334620.
In all, about 33,000 sequences were measured (“E-score (-0.5 to 0.5)”: median about -0.015, highest 2% from about 0.3 on). The list shows a part of the results.

target: T1, Abf1 (UniProt P14164); test: PBM E-score (8-mer binding enrichment) (E-score (-0.5 to 0.5)); higher = stronger / more preferred TF binding; conditions: protein concentration: 200 nM; construct: GST-full length
T1 sequence: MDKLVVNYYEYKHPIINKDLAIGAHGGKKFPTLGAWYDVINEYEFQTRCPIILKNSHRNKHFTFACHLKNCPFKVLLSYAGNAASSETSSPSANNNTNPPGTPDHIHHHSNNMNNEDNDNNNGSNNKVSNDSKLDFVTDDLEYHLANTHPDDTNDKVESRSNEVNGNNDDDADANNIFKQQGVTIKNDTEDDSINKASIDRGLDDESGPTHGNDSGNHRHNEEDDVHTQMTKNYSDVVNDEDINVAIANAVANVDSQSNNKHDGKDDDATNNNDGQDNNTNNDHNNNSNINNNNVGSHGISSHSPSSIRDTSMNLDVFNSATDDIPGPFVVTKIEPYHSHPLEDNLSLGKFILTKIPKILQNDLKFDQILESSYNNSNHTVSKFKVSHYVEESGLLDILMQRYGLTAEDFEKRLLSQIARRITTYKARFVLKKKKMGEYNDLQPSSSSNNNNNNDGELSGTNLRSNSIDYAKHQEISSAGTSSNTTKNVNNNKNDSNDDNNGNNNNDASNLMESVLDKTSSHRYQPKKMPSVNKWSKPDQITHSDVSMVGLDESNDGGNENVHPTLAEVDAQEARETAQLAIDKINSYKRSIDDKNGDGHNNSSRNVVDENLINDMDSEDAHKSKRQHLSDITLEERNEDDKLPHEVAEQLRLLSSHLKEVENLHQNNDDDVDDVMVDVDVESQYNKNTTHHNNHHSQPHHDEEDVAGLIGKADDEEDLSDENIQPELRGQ
In short: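 PURExpress in vitro transcription/translation supplied GST-tagged yeast transcription factors, either full-length or DNA-binding domain. Applied at about 100-200 nM to universal all-10-mer Agilent arrays double-stranded by primer extension, the bound protein was detected with fluorescent anti-GST. E-scores, modified Wilcoxon-Mann-Whitney statistics, were given by the Universal PBM Analysis Suite to ungapped eight-base words pooled with their reverse complements after masliner normalisation.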

Point of comparison: AACTGCGT, “PBM E-score” value -0.113. Against it:
- CTCCTCAC — higher, -0.0256
- GTAGTCCA — higher, -0.078
- AAAGGGTC — higher, 0.12
- AGGGCACG — higher, -0.0317
- GCTATCGA — higher, 0.0665
- GCGCGGCA — higher, -0.0336
- TACCGTAA — higher, 0.112
- TCAACACA — higher, 0.14
- AGTCCAAT — higher, 0.0467
- CTCAATAA — higher, 0.0635
- CAAGCGAC — higher, 0.0372
- GCTTAGCA — lower, -0.123
- ACTCATAG — higher, -0.0845
- CCTCGGAA — higher, 0.0529
- CCTCGTGC — higher, 0.00335
- GCACTAGA — higher, -0.064
- ATACGTTA — higher, 0.224
- AACGATAG — higher, 0.265
- CTAGCCCC — lower, -0.26
- ATCAGAGC — higher, 0.183
- ATAGTCCC — higher, 0.00444
- ATCCGGAA — higher, 0.0568
- AACGACAC — higher, 0.238
- ACATGGAT — higher, -0.0566
- AAAATTAT — higher, 0.228
- CATCTTTA — higher, 0.0861
- ACCCTCTA — higher, 0.0207
- ATCTTCAT — higher, 0.126
- GATGAACA — higher, 0.0864
- CTTGTTTC — higher, -0.101
- TTAACCAA — lower, -0.117
- GAAACGCA — lower, -0.161
- CTCAGGGC — lower, -0.228
- CTGCCTCC — lower, -0.296
- CACAGAAA — higher, -0.0195
- CCCAAGTC — the same, -0.113
- GACTATGA — higher, 0.0989
- CGGCATAA — higher, 0.0361
- CCTCTCAC — higher, 0.0361
- CGTTGTGA — higher, 0.0465
- AAAGGGGC — lower, -0.191
- TCCCTACA — higher, -0.0464
- AAGCCGGG — higher, -0.0973
- GTAGGAAC — higher, 0.0714
- GAATACCA — higher, 0.0381
- CTATGGAA — higher, -0.0164
- CTGGAAAG — higher, 0.0529
- ACATATCA — higher, 0.341
- CGAGTGGC — higher, -0.112
- CTTCCGCA — higher, -0.00655
- CACAATAC — higher, 0.0342
- ACGTCGTC — higher, 0.238
- AGCCAAAA — higher, 0.0415
- AGTTCGTA — higher, 0.264
- TGCGTCCA — lower, -0.126
- CTTGGTTC — higher, -0.053
- CAAACATG — higher, -0.0732
- ACCTTGGC — lower, -0.256
- CTTGGTGC — lower, -0.213
- CCCGGTAC — higher, -0.0442
- CCTGCACA — lower, -0.163
- ATGCATAA — higher, 0.033
- ATGCATCC — lower, -0.194
- GAATCCTA — higher, 0.151
- GCGACCAA — higher, -0.0512
- CGCGTAAA — higher, 0.0624
- AACGGCAA — higher, 0.224
- CTAGGGCA — lower, -0.273
- AGTCTCGC — higher, 0.00789
- AAAGCCTA — lower, -0.182
- TCTCTTCA — higher, 0.063
- ATGTGTTA — higher, 0.212
- CTCCCCAG — lower, -0.394
- TAGGTGAA — higher, -0.0364
- ACCCTAAG — higher, 0.0923
- CATTCATA — higher, 0.154
- AGGCGGCA — higher, -0.0675
- CCTAAGAC — lower, -0.21
- CATGGTCG — higher, -0.0567
- GGCAACCC — higher, -0.0796
- AGATGTCG — higher, 0.103
- ACCCGCGA — higher, 0.0496
- AACTCGGG — higher, 0.0149
- GAAATGGA — higher, 0.0553
- ACTATGCT — higher, 0.0126
- AGTTGTCG — higher, -0.0227
- AACACATT — higher, -0.0385
- CAACACTA — higher, 0.0223
- ATCCGTAA — higher, 0.14
- CAGGAATG — lower, -0.203
- CGTGGAGC — higher, -0.0663
- TTAAATAA — higher, 0.102
- TCGCGCAA — higher, 0.188
